No constants are given. Whether binding was seen depends on the method and setting. Binding seen in cells or lysates may run through a third protein. Some entries that bind do so weakly or less than the wild type. Tags and fused reporters may be left off the sequences shown.
Biological target: T1, Mitofusin 1 (human (endogenous in HeLa)) (UniProt Q8IWA4)
T1 sequence: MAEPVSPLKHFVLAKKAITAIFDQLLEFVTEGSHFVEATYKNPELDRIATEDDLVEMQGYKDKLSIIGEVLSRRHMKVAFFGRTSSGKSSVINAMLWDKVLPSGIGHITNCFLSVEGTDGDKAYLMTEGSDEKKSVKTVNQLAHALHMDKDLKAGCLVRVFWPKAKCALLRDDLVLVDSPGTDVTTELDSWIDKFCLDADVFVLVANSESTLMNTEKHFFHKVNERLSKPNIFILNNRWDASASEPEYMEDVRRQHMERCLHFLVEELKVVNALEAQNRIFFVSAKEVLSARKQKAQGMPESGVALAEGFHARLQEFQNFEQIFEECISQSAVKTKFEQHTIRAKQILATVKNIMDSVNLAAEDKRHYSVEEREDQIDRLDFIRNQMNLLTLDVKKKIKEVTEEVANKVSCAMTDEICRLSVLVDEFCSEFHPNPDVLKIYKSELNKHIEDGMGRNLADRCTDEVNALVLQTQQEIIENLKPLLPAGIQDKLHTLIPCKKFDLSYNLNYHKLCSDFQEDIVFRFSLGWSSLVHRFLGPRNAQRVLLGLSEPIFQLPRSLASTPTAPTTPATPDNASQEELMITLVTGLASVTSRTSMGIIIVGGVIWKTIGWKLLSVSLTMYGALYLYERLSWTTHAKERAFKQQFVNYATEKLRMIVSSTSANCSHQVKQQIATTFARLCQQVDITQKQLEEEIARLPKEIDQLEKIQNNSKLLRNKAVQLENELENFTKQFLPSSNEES
Assay: co-IP; HeLa lysates immunoprecipitated with anti-Mfn1 antibody, as described for the cyclin B1 immunoprecipitates; immunoblot; G2/M cells obtained by taxol treatment for 12 h

Sequences of proteins named here, by UniProt entry; tags and fusion partners are left off.
UniProt P14635: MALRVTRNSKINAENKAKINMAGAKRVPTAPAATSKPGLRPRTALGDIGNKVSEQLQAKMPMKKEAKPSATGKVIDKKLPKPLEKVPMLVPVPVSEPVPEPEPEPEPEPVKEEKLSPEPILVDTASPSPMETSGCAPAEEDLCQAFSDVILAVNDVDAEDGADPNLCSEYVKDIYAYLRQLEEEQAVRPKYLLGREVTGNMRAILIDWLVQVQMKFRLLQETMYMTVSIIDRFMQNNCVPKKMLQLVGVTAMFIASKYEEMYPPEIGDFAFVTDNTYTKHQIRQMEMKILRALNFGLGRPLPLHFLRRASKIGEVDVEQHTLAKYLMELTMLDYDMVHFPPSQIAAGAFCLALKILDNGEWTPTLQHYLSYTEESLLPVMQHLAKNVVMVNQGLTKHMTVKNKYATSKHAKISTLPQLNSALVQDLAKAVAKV

With cyclin B1 (from UniProt P14635 1-433) the binding was “binds”.

Source: PMC3542011
